Source: the supplement of paper PMC12067093, “Discovery and optimisation of a covalent ligand for TRIM25 and its application to targeted protein ubiquitination” (Chemical Science, 2025)
The other results are listed elsewhere or left out.

Sequences of proteins named here, by UniProt entry; tags and fusion partners are left off. A change or cut given only in a name is not applied to a line headed by its entry.
UniProt Q9NV96: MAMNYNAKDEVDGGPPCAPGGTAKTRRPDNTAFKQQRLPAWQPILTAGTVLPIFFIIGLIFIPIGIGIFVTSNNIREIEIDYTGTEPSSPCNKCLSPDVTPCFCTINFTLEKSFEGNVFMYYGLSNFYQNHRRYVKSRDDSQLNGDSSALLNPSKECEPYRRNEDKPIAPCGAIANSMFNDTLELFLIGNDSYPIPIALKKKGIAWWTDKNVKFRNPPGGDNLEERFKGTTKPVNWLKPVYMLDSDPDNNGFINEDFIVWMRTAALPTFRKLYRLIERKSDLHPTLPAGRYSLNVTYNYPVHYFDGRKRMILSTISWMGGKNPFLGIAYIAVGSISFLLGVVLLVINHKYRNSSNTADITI
UniProt Q9H3S4: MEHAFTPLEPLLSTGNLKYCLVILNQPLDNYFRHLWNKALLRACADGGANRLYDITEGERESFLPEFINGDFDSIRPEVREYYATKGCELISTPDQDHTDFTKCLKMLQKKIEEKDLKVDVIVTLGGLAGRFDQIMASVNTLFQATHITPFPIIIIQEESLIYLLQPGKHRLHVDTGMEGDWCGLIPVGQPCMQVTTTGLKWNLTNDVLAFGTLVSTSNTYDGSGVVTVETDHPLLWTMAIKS
UniProt Q68CZ2: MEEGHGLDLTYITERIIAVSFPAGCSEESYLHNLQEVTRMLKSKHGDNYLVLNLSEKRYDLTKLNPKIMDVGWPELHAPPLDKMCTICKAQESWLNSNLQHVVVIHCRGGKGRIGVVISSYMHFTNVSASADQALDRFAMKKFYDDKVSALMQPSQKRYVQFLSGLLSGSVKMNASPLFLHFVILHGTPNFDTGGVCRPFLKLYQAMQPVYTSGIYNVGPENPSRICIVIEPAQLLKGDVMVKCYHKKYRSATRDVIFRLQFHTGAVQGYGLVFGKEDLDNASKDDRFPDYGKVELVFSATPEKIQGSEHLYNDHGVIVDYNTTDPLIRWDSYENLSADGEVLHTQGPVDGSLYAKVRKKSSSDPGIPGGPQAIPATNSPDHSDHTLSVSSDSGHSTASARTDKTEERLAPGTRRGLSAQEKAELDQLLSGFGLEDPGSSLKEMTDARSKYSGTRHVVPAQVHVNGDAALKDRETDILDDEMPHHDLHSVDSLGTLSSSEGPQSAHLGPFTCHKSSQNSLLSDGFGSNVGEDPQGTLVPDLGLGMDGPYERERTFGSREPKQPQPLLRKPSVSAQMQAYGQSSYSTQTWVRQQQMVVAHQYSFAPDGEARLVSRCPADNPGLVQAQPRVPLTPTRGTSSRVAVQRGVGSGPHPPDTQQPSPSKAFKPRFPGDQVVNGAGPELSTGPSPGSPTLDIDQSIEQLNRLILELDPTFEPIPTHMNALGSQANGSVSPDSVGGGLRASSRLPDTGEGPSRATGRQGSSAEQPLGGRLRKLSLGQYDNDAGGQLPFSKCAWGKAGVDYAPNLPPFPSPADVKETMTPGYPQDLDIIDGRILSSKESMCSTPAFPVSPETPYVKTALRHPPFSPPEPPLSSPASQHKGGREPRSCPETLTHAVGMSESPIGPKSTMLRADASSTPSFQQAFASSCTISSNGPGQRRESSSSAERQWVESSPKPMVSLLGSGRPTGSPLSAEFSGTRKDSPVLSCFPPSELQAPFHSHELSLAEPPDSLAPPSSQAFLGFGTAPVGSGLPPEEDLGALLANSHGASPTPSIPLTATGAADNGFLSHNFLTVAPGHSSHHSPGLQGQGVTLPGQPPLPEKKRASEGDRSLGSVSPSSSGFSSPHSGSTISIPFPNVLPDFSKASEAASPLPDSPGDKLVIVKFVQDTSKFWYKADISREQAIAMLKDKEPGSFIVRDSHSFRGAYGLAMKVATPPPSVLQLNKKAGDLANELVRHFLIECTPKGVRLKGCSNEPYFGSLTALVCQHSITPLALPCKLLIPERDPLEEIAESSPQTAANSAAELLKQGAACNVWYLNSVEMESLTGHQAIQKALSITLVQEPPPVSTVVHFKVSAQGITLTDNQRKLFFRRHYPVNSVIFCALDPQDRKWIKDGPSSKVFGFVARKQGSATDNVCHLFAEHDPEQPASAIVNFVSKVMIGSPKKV
UniProt Q86WV6: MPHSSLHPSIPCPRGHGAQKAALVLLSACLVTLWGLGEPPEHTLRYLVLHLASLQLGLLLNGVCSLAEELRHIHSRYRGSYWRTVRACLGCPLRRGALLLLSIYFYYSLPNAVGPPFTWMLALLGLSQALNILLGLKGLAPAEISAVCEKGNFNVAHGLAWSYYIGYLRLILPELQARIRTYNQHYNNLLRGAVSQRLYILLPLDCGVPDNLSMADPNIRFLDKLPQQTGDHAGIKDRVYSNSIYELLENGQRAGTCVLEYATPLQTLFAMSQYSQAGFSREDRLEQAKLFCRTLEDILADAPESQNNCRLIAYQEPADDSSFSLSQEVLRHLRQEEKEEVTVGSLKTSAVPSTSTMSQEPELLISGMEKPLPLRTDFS
UniProt P21580: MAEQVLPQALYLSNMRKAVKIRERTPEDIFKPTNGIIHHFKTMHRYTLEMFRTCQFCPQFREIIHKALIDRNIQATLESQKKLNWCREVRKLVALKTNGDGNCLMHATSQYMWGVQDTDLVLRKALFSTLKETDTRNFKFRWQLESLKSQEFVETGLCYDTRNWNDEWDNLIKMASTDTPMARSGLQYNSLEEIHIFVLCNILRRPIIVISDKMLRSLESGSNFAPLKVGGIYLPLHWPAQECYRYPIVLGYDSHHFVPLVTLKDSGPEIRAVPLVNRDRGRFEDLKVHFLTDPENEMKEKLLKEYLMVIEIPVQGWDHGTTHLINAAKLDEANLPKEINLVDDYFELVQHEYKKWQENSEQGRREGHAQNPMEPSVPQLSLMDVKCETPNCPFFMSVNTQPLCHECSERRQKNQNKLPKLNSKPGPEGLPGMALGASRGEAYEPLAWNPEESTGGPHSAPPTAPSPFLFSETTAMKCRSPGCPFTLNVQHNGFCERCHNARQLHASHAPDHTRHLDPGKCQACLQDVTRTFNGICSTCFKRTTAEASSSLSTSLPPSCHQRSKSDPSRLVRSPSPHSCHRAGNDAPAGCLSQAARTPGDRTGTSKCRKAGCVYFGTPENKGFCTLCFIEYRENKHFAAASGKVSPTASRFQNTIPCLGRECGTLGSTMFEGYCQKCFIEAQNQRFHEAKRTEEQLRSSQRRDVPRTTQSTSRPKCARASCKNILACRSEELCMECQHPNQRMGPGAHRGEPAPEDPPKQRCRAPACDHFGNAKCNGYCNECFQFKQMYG
UniProt P11388: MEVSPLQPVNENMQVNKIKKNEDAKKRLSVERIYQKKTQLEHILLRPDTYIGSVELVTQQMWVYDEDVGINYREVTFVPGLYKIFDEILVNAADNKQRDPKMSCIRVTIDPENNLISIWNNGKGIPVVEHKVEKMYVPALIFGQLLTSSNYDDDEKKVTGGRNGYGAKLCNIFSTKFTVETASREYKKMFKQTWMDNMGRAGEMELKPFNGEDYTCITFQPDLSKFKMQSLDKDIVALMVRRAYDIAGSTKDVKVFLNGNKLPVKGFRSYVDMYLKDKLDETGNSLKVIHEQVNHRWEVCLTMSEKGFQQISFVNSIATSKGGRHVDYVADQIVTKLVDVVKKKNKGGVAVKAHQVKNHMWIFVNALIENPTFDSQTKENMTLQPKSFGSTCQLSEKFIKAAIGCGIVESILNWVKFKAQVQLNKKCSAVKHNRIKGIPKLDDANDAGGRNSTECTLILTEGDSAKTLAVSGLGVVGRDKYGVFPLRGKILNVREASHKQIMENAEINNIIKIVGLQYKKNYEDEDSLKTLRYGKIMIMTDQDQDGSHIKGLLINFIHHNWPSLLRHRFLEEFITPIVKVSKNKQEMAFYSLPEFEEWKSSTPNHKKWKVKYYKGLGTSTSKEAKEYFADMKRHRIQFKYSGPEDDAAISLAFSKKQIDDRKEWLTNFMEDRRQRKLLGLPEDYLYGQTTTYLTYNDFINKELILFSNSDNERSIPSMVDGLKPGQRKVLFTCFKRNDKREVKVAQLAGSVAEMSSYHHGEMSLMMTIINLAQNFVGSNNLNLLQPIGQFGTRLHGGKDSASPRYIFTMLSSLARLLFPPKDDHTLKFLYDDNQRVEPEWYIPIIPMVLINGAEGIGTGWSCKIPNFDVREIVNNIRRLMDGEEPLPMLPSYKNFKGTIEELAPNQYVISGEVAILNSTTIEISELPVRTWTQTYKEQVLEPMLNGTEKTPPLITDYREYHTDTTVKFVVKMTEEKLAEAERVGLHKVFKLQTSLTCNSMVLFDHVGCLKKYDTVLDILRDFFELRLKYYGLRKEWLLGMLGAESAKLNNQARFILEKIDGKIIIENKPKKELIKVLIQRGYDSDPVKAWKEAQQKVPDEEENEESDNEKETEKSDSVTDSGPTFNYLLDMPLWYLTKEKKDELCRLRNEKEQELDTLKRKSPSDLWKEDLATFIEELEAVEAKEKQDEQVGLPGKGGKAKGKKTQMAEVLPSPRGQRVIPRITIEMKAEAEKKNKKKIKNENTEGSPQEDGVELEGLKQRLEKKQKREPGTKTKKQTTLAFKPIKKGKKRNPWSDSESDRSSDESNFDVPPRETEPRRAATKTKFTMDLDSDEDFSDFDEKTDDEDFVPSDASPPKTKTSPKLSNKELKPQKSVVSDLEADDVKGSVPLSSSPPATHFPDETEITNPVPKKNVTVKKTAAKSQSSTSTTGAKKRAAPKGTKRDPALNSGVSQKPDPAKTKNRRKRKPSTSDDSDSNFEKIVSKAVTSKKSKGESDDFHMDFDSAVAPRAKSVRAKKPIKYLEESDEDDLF
UniProt O94826, whole entry, looked up: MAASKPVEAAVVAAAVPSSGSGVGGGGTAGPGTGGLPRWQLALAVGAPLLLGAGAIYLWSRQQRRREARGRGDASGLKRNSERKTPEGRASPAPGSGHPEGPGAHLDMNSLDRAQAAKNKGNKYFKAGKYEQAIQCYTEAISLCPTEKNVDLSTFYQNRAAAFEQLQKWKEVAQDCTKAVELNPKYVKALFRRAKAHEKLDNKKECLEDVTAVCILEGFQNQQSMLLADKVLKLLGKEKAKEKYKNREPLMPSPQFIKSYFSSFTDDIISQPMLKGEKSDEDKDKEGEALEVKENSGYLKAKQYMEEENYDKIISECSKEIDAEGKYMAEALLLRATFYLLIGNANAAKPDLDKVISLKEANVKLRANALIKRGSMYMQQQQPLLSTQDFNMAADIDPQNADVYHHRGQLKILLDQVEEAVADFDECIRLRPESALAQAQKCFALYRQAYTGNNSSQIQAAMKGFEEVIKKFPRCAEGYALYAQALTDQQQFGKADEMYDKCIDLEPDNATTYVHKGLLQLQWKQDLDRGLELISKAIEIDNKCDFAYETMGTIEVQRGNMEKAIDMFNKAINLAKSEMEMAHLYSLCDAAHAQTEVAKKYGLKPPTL
UniProt O43399: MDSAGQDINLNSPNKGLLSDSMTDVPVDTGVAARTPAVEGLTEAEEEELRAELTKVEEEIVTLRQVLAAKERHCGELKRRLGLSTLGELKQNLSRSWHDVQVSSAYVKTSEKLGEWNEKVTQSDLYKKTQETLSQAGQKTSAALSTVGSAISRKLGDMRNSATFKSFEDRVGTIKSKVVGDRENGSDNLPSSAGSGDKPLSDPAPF

Compound: Cc1cc(ccc1-c1ccccc1)C(=O)N1CCCN(CC1)C(=O)CCl [compound 10]
Experiment: probe-labelled cysteine peptide fold change vs DMSO (competition) (log2 fold change); higher = less target engagement (more negative = stronger competition)
Conditions: THP-1, incubation time: 4 h
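Further: competitive profiling in live THP-1 cells: cysteine peptides tagged with an iodoacetamide desthiobiotin (IA-DTB) probe, intensity after compound treatment relative to DMSO-treated cells.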

Row | Target | probe-labelled cysteine peptide fold change (10 µM) | probe-labelled cysteine peptide fold change (50 µM)
1 | TMEM30A_Q9NV96_17_DEVDGGPPCAPGGTAK (UniProt Q9NV96) | -0.226 | -0.00113
2 | TPK1_Q9H3S4_88_GCELISTPDQDHTDFTK (UniProt Q9H3S4) | -0.266 | -0.086
3 | TNS3_Q68CZ2_227_ICIVIEPAQLLK (UniProt Q68CZ2) | 0.128 | -0.0639
4 | TMEM173_Q86WV6_148_GLAPAEISAVCEK (UniProt Q86WV6) | -0.241 | 0.0295
5 | TNFAIP3_P21580_158_SQEFVETGLCYDTR (UniProt P21580) | -0.274 | 0.0322
6 | TOP2A_P11388_455_NSTECTLILTEGDSAK (UniProt P11388) | 0.117 | 0.0724
7 | TOMM70_O94826_588_SEMEMAHLYSLCDAAHAQTEVAKK (UniProt O94826) | -0.0371 | -0.208
8 | TPD52L2_O43399_74_HCGELK (UniProt O43399) | -0.0703 | -0.203
